# Data published in PubChem BioAssay AID1347075 (National Center for Advancing Translational Sciences (NCATS), 2019).
# The whole screen tested about 400,000 compounds, of which about 5,500 (1.4%) were called active. This list was built around the results that the source calls inconclusive (neither active nor inactive); the mix of calls is not that of the screen. The call rests on the fitted dose curve; in most records, active means well fitted cell-killing curve with a large enough effect; inconclusive means small, poorly fitted or top-dose-only effect, or effect the other way; inactive means flat fitted curve, though single readings scatter. Potencies beside an inconclusive call are fits to weak or partial responses and may not hold up.
# Experiment: qHTS assay for MDR1-selective chemotherapeutics: Primary screen using the parental adenocarcinoma cell KB-3-1; further: nearly all actives have a fitted effect of over 60% in size
# Settings: KB-3-1 viability, CellTiter-Glo ATP luminescence, 72 h; activity change, negative = cytotoxic: at 46.1 µM (top of the series)
# How it was run: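 Using CellTiter-Glo luminescence, growth of non-resistant KB-3-1 adenocarcinoma cells is assessed 72 h after pin-tool compound addition at 37 °C. Normalized responses across the concentration series yield fitted curves.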
# On the % scale 0 is the no-effect control and ±100 the full control effect; potency means the concentration at half of the fitted maximal effect.
Compound,Potency,"activity change, negative = cytotoxic"
COc1ccc(C(=O)COC(=O)c2ccccc2O)c(OC)c1,inactive,–
CCOc1ccc(C(=O)Nc2ccccc2N2CCCC2)cc1,active: 23.1 µM,–
COC(=O)c1ccc(CNC(=O)C(C)N=C2NS(=O)(=O)c3ccccc32)cc1 (stereo not given),"inconclusive: 23.1 µM [rising, single point]",–
CCCCCc1cc(=O)oc2c(C(CCN3CCCCC3)c3cc(OC)c(OC)c(OC)c3)c(OC)cc(OC)c12 (stereo not given),"inconclusive: 29.1 µM [cytotoxic, single point]",–
Cc1cc(NC(=O)NC(C(F)(F)F)C(F)(F)F)no1,inactive,–
CCOC(=O)N1CCN(S(=O)(=O)N2CCCC(C(=O)NCc3ccc(C)cc3)C2)CC1 (stereo not given),inactive,–
CN1CCN(CCC(=O)N2c3ccccc3Sc3ccc(Cl)cc32)CC1,inactive,–
COc1ccc(NS(=O)(=O)c2cccs2)cc1S(=O)(=O)N1CCOCC1,inactive,–
COC(=O)c1ccc(C(=O)N(CCN(C)C)c2nc3c(Cl)cccc3s2)cc1,inactive,–
CCc1ccc(OCC(=O)NNC(=O)c2cnccn2)c(Br)c1,"inconclusive: 14.6 µM [cytotoxic, partial curve, poor fit]",–
O=C(N=C1SC2CS(=O)(=O)CC2N1c1cc(Cl)ccc1Cl)C1CCCO1 (stereo not given),inactive,–
O=C1CC(c2cccc([N+](=O)[O-])c2)c2c(ccc3ccccc23)N1 (stereo not given),"inconclusive: 6.51 µM [cytotoxic, full curve]",–
CCCN1C(=O)C(O)(C2COC(C)(C)CC2=O)c2ccccc21 (stereo not given),inactive,–
Cc1[nH]c2ccccc2c1C(=O)C(=O)Nc1ccc2c(c1)OCCO2,inactive,–
C=CCNc1nc(N2CCCCC2)c(C#N)c2c1CN(Cc1ccccc1)CC2,"inconclusive: 20.6 µM [cytotoxic, single point]",–
CC(=O)Oc1ccc(C(=O)Nc2ccccc2C(=O)N2CCCCC2)cc1,inactive,–
CC1CC(C)CN(S(=O)(=O)c2ccc(C(=O)Nc3nnc(-c4cccs4)o3)cc2)C1 (stereo not given),"inconclusive: 2.82 µM [cytotoxic, full curve, poor fit]",–
Cn1c(SCC(=O)N/N=C/c2cc([N+](=O)[O-])ccc2O)nnc1-c1ccccc1,"inconclusive: 29.1 µM [cytotoxic, single point]",–
Cc1ccc(NC(=O)c2cccc(NC(=O)/C=C/c3ccco3)c2)cc1C,"inconclusive: 1.84 µM [rising, partial curve, poor fit]",–
CN1CCN(C(=O)c2ccc(-c3cc4nc(NCc5cccnc5)n(C)c(=O)c4s3)cc2)CC1,–,inconclusive: -41.5%
Cc1sc2nc(CN3CCCC3)nc(N3CCN(S(=O)(=O)c4cccs4)CC3)c2c1C,"inconclusive: 11.6 µM [rising, partial curve, poor fit]",–
Cc1ccccc1NCc1ccc([N+](=O)[O-])s1,"inconclusive: 29.1 µM [cytotoxic, single point]",–
CNC(=S)NNC(=O)c1c(C)nc2cc(C)ccn12,"inconclusive: 29.1 µM [rising, single point]",–
COc1ccc2c(c1)OC[C@H]1[C@H]2N2C(=O)CN(Cc3ccco3)C(=O)[C@@]2(C)[C@H]1c1ccccc1,"inconclusive: 18.4 µM [cytotoxic, single point]",–

# Two successive compounds from above, quoted:
Compound,Potency,"activity change, negative = cytotoxic"
Cn1c(SCC(=O)N/N=C/c2cc([N+](=O)[O-])ccc2O)nnc1-c1ccccc1,"inconclusive: 29.1 µM [cytotoxic, single point]",–
Cc1ccc(NC(=O)c2cccc(NC(=O)/C=C/c3ccco3)c2)cc1C,"inconclusive: 1.84 µM [rising, partial curve, poor fit]",–

# Continuation.

Compound,Potency,"activity change, negative = cytotoxic"
COc1ccc(C(=O)N2[C@@H](C(C)C)COc3cc(Br)ccc3S2(=O)=O)cc1,"inconclusive: 29.1 µM [cytotoxic, single point]",–
COc1ccccc1-c1noc(-c2ccc(N3CCC(C)CC3)c([N+](=O)[O-])c2)n1,inactive,–
Cc1ccc(-n2cc(CN3CCN(c4ccccn4)CC3)c(-c3ccc(F)cc3)n2)cc1,"inconclusive: 16.4 µM [cytotoxic, single point]",–
N#Cc1ccc(C(=O)NC(=S)N2CCOCC2)cc1,inactive,–
O=C(CSc1ccc(-c2ccco2)nn1)Nc1ccccc1,inactive,–
OCCC1CN(Cc2cnc(-c3ccc(Cl)cc3)nc2)CCN1C1CCCCC1 (stereo not given),"inconclusive: 13 µM [cytotoxic, partial curve, poor fit]",–
COC(=O)C(C(=O)Nc1ccc(OC)cc1)C1CCCCCC1 (stereo not given),"inconclusive: 29.1 µM [cytotoxic, single point]",–
Cc1cc(N2CCCC(C(=O)Nc3ccc4c(c3)CCC4)C2)n2ncnc2n1 (stereo not given),"inconclusive: 18.4 µM [cytotoxic, single point]",–
CCOC1=C2CN(S(=O)(=O)c3ccc(C)cc3)C(c3cccc(Cl)c3)CC2N(S(=O)(=O)c2ccc(C)cc2)C(c2ccncc2)C1 (stereo not given),"inconclusive: 20.6 µM [cytotoxic, single point]",–
CCN1C(=O)c2ccccc2Sc2ccc(NC(C)=O)cc21,"inconclusive: 29.1 µM [cytotoxic, single point]",–
O=C(Nc1ccc(-c2cn3ccsc3n2)cc1)C1COc2ccccc2O1 (stereo not given),"inconclusive: 29.1 µM [cytotoxic, single point]",–
CCOc1ccc(-n2c(SCc3ccc(C(=O)OC)o3)nc3c([nH]c4ccccc43)c2=O)cc1,inactive,–
COC(=O)N/N=C/c1ccc(OC(=O)/C=C/c2ccco2)cc1,"inconclusive: 0.0116 µM [rising, full curve, poor fit]",–
Cc1ccc(NCC(=O)N/N=C/c2ccc(C(=O)O)cc2)cc1,inactive,–
COc1cccc(/C=N/NC(=O)c2cc3c(OC)c(OC)ccc3[nH]2)c1OC,active: 9.2 µM,–
CC(C)(C)c1ccc(OCC(=O)NNC(=O)c2cccnc2)cc1,inactive,–
Cc1cc(C)cc(C(=O)NC(=S)Nc2ccc(-c3cc4ccccc4oc3=O)cc2)c1,"inconclusive: 29.1 µM [cytotoxic, single point]",–
CCOC(=O)CCCc1ccc(/C(C)=N/NC(=S)NC)cc1,inactive,–
Cc1ccc(C)c(OCCC(=O)N2CCN(S(=O)(=O)c3cc(C)ccc3C)CC2)c1,"inconclusive: 29.1 µM [cytotoxic, single point]",–
O=C(CCN1C(=O)/C(=C/c2cccs2)SC1=S)N1CCCCC1,"inconclusive: 29.1 µM [cytotoxic, single point]",–
Cc1nc(-c2cccc(S(=O)(=O)N3CCCCC3)c2)cs1,"inconclusive: 18.4 µM [cytotoxic, partial curve, poor fit]",–
COc1ccccc1NS(=O)(=O)c1cccc(NC(=O)c2sc3ccccc3c2Cl)c1,"inconclusive: 9.2 µM [cytotoxic, single point]",–
COc1ccc(C2NC(=O)c3sc4nc(C)c(C(C)=O)c(-c5ccc(Cl)cc5)c4c3N2)cc1 (stereo not given),inactive,–
Nc1nc(Nc2cccc(Cl)c2)nc(NCc2ccco2)c1[N+](=O)[O-],active: 16.4 µM,–

# 3 compounds from above, sorted by number of heavy atoms, rising:
Compound,Potency,"activity change, negative = cytotoxic"
CCN1C(=O)c2ccccc2Sc2ccc(NC(C)=O)cc21,"inconclusive: 29.1 µM [cytotoxic, single point]",–
COc1ccccc1-c1noc(-c2ccc(N3CCC(C)CC3)c([N+](=O)[O-])c2)n1,inactive,–
COc1ccc(C2NC(=O)c3sc4nc(C)c(C(C)=O)c(-c5ccc(Cl)cc5)c4c3N2)cc1 (stereo not given),inactive,–

# Next part

Compound,Potency,"activity change, negative = cytotoxic"
Fc1cc(F)cc(Nc2nc(Cl)nc(NC3CCCC3)n2)c1,"inconclusive: 29.1 µM [cytotoxic, single point]",–
CC(CCc1ccccc1)NC(=O)CCCn1ncn2c(cc3occc32)c1=O (stereo not given),"inconclusive: 8.2 µM [rising, partial curve]",–
CCOc1ccc(N(CC(=O)NC2CCCCC2)C(=O)CCC(=O)Nc2nc(C)cs2)cc1,"inconclusive: 0.58 µM [cytotoxic, full curve]",–
COc1ccc(-c2noc(N3CCC(C(=O)NC(C)c4ccccc4)CC3)n2)cc1 (stereo not given),"inconclusive: 9.2 µM [cytotoxic, partial curve]",–
CCc1cc2c(NCC(=O)O)ncnc2s1,inactive,–
COc1cccc(/C=N/Nc2cc(C)nc(-c3ccccc3O)n2)c1O,"inconclusive: 23.1 µM [cytotoxic, partial curve, poor fit]",–
CCCCCCCCCC[n+]1ccc(/C=C/c2ccc(N(C)C)cc2)c2ccccc21,"inconclusive: 2.31 µM [cytotoxic, partial curve, poor fit]",–
COC(=O)[C@H](CC(C)C)NC(=O)/C=C/[C@H]1O[C@@H](n2ccc(=O)[nH]c2=O)[C@H](O)[C@@H]1O,inactive,–
O=C(NCc1ccccc1)Nc1cccn(Cc2c(F)cccc2Cl)c1=O,"inconclusive: 29.1 µM [cytotoxic, single point]",–
C[C@@H]1CCCCO[C@H](CN(C)Cc2ccc(C(F)(F)F)cc2)[C@H](C)CN([C@@H](C)CO)C(=O)c2cc(NC(=O)Cc3ccccc3)ccc2O1,"inconclusive: 29.1 µM [cytotoxic, single point]",–
Oc1cc(-n2cccn2)c(O)cc1-n1cccn1,inactive,–
COc1cc2c(cc1OC)C1CCc3cc4c(cc3C1N=C2)OCO4 (stereo not given),"inconclusive: 18.4 µM [cytotoxic, partial curve, poor fit]",–
Cc1ccc(Cn2c(=O)c3cccnc3n(CC(=O)Nc3cccc(C(F)(F)F)c3)c2=O)cc1,"inconclusive: 29.1 µM [cytotoxic, single point]",–
CCCN1CCN(C(=O)c2ccc(CS(=O)c3ccc(Cl)cc3)o2)CC1 (stereo not given),inactive,–
CCOc1ccc(NC(=O)C(=O)NCCc2csc(-c3ccc(F)cc3)n2)cc1,inactive,–
CCOC(=O)N1CCN=C1SCc1ccc(C(F)(F)F)cc1,inactive,–
Cc1ccccc1OCc1nnc(SCC(=O)Nc2ccc3nc(SCC(=O)NC(C)(C)C)sc3c2)n1C,inactive,–
CCN(C(=O)c1cc2ccccc2oc1=O)c1ccccc1,inactive,–
Cc1cc(C(=O)C(C)OC(=O)C2=NNC(=O)CC2)c(C)n1-c1ccc(OC(F)F)cc1 (stereo not given),"inconclusive: 20.6 µM [cytotoxic, single point]",–
Cc1ccc2c(c1)C1CN(C)CCC1N2C(=S)Nc1ccc(Cl)cc1Cl (stereo not given),"inconclusive: 29.1 µM [cytotoxic, single point]",–
Nc1cc(N2CCCCCC2)c2nonc2c1[N+](=O)[O-],active: 11.6 µM,–
O=C(CN1C(=O)NC2(CCCc3ccccc32)C1=O)c1ccc(F)cc1 (stereo not given),inactive,–
